Results reported in the supplement of paper PMC11006884.
The list shows a part of the results, in another mix than the full data.

The chains behind the UniProt entries cited, without tags or fusion partners. Where a name states a change or a piece, a line headed by the entry shows the natural chain unless it says otherwise.
UniProt Q8N726, whole entry: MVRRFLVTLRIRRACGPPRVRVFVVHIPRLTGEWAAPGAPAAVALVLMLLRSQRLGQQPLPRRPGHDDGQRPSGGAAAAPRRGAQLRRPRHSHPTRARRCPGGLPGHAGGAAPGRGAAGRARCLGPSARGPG
UniProt Q8NI08: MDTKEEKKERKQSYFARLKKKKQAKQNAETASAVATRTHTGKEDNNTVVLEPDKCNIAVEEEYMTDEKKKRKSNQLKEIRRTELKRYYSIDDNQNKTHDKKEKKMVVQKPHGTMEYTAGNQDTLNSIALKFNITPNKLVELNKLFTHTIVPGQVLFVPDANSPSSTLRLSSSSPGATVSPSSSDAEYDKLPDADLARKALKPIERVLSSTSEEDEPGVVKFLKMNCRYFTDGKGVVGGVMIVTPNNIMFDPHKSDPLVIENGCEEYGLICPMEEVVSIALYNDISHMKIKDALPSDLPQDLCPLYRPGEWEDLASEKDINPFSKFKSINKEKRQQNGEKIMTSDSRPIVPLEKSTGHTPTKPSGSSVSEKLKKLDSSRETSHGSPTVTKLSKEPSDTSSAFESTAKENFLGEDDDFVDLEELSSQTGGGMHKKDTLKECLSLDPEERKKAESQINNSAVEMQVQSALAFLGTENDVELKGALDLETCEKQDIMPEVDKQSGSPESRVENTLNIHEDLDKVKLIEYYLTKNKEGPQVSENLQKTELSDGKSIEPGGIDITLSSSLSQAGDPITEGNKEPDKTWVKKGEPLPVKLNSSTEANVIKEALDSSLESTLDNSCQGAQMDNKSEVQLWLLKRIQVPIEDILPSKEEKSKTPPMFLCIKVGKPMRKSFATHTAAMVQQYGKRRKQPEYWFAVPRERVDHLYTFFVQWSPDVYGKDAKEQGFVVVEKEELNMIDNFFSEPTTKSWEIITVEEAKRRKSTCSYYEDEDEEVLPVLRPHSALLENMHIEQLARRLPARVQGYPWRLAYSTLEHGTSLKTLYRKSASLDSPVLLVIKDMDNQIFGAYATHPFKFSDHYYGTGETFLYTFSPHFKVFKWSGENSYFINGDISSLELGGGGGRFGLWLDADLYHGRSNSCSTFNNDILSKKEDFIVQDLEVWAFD
UniProt Q8N8S7: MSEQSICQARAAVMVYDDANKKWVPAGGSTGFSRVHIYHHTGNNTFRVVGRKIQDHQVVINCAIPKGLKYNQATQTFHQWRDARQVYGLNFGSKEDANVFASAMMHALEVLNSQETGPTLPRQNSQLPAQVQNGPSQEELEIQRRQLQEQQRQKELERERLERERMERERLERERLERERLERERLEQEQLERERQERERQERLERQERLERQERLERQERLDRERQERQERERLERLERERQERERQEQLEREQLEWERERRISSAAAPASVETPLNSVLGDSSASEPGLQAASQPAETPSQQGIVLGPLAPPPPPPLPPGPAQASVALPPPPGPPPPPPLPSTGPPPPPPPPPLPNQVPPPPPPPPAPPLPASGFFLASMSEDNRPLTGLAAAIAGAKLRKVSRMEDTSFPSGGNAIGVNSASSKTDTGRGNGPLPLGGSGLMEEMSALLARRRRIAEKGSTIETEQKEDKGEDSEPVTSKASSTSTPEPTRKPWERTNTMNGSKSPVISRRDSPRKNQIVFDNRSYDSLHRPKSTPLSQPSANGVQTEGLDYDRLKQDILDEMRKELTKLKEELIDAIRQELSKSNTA
UniProt Q8NDT2: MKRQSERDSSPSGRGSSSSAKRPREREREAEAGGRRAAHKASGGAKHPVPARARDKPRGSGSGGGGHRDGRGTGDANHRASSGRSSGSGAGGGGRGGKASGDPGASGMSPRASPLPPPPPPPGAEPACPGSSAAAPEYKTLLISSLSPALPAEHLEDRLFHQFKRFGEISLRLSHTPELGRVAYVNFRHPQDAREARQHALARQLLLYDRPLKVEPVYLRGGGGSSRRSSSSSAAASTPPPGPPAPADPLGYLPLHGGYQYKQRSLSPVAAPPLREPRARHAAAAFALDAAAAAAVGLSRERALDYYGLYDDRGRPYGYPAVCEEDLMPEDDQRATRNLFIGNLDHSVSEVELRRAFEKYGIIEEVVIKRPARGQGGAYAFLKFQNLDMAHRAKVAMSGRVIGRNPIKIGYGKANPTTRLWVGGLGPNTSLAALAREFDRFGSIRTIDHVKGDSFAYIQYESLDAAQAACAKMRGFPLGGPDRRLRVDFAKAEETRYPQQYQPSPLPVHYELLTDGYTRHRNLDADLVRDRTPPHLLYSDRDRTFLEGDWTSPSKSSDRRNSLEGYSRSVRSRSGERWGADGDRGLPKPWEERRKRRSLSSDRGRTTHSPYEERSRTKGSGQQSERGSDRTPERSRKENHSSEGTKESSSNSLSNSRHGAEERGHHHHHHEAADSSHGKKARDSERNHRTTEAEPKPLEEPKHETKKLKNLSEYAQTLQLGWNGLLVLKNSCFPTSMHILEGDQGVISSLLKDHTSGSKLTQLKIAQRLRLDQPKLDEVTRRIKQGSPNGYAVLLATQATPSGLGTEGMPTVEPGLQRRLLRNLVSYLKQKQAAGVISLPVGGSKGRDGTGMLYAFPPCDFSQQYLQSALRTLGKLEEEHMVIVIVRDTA
UniProt Q8NFC6: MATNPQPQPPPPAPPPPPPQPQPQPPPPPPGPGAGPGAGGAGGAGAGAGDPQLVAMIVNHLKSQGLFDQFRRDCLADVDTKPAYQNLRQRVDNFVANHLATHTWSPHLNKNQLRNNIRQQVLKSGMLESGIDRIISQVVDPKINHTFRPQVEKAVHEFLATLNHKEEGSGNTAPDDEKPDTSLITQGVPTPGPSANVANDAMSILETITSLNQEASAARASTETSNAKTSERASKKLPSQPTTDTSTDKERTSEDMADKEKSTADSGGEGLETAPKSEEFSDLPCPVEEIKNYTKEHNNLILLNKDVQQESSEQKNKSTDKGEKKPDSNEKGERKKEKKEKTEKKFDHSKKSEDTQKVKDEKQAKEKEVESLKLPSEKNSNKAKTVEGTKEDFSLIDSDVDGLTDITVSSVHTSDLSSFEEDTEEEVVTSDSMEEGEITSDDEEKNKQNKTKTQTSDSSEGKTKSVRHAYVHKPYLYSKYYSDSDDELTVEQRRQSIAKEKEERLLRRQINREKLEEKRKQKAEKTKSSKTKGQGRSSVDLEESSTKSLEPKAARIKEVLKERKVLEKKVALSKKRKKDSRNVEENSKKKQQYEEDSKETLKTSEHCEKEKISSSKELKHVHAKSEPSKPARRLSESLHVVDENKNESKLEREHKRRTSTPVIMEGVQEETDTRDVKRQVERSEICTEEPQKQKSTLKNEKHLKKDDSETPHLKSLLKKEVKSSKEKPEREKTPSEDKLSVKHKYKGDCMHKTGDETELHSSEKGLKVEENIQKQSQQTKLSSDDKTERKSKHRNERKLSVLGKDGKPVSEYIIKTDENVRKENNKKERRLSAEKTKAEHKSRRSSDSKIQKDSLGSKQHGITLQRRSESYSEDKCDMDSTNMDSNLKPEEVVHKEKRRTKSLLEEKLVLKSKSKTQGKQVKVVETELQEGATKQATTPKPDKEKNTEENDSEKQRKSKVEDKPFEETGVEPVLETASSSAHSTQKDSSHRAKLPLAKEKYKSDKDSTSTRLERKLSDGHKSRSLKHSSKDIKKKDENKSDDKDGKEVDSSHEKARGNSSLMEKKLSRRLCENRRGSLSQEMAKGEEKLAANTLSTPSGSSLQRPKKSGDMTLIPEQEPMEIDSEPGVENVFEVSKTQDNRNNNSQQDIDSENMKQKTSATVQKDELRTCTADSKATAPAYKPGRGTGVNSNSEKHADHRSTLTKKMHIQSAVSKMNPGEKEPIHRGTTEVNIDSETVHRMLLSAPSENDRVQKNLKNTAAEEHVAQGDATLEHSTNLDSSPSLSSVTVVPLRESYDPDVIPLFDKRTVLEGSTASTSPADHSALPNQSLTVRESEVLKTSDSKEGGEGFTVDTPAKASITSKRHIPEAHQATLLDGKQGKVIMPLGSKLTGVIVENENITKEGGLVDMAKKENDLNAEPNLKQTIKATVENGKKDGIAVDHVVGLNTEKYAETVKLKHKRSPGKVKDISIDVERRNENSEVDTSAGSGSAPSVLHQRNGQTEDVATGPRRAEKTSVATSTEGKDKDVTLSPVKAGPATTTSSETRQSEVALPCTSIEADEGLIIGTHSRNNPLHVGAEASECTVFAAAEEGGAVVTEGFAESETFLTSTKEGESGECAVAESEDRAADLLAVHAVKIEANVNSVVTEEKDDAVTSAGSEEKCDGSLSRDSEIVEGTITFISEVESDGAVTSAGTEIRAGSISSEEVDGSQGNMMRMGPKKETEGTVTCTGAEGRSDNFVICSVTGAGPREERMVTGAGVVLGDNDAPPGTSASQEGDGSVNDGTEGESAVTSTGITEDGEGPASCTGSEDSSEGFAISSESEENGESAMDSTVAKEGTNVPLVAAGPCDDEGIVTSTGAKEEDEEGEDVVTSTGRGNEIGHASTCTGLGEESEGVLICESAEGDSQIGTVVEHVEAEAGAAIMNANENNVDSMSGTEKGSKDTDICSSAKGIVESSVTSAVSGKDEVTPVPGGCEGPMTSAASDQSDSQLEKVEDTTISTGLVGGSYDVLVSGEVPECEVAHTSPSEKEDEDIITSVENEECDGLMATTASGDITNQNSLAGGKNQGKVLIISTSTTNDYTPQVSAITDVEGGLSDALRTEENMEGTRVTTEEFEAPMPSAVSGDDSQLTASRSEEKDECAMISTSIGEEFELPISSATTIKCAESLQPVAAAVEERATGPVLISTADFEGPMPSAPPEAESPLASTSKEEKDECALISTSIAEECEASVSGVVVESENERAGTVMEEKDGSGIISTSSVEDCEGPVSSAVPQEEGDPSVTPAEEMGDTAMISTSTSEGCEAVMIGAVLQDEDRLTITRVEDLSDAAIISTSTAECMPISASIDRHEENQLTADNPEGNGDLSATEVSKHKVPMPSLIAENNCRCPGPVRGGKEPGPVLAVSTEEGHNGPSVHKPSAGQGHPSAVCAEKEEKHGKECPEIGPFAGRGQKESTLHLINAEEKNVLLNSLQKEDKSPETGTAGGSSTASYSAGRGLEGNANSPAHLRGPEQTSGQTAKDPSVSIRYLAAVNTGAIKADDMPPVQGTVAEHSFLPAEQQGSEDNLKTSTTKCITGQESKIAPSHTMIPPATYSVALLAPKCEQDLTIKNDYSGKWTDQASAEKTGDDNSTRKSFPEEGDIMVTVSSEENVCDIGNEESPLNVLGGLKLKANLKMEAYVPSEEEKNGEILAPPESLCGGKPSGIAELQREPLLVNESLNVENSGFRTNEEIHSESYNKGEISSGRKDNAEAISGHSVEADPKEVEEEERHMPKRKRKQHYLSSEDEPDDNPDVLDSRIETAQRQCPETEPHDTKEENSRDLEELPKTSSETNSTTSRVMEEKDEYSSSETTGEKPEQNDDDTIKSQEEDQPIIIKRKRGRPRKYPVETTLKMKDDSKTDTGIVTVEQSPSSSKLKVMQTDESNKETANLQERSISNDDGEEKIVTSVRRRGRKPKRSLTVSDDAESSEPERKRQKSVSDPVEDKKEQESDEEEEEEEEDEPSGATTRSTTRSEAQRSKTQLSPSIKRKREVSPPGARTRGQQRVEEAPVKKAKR
UniProt Q8N4N3: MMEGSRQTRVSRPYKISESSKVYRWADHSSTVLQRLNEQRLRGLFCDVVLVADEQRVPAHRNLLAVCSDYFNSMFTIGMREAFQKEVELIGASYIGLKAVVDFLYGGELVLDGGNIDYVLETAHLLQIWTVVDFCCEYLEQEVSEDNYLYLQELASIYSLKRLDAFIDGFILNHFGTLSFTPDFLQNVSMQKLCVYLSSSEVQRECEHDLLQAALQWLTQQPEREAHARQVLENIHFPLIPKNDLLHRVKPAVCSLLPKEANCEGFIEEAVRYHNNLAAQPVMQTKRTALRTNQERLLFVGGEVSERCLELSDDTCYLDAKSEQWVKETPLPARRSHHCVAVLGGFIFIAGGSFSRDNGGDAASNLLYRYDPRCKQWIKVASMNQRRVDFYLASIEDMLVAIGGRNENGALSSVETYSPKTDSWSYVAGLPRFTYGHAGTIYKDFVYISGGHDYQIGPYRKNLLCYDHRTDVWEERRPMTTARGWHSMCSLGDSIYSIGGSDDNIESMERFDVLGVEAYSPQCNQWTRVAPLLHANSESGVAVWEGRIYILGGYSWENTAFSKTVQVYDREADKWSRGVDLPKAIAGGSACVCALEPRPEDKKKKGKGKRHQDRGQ
UniProt Q8NBN7: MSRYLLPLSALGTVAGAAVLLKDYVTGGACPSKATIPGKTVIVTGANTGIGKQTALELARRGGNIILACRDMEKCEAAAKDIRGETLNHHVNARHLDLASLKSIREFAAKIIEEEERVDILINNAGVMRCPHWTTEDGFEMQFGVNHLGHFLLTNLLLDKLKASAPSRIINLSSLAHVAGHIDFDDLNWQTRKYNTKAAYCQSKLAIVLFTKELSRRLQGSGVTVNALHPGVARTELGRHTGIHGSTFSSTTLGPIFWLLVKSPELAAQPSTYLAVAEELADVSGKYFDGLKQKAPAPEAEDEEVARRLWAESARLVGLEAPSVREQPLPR

compound: COC(=O)C#Cc1ccccc1 [methyl 3-phenylpropiolate]; test: log2 ratio of iodoacetamide-alkyne labeling of the cysteine site, DMSO over compound (competition); higher = stronger covalent engagement of the cysteine by the compound, active = 1 or more; conditions: 500 µM; treatment time 1 h; system: HEK293T cell lysate
Outline: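 For each cysteine, the log2 competition ratio is mean control-channel reporter intensity over mean compound-channel reporter intensity. HEK293T lysate (2 mg/mL) was exposed to vehicle or electrophile (500 µM, 1 h, ambient temperature), labelled with iodoacetamide alkyne (1 h), clicked to sCIP-TMT reagents, digested overnight with trypsin at 37 °C, streptavidin-enriched and analysed by Orbitrap Eclipse LC-MS/MS with FAIMS and FragPipe. Cysteines quantified in only one of three replicates, each with duplicate channels, were excluded.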

Row | Target | log2 ratio of iodoacetamide-alkyne labeling
1 | FBXO30 C396 (UniProt Q8TB52) | inactive: 0.433
2 | UniProt Q8N726_C123 | inactive: 0.8
3 | NCOA7 C439 (UniProt Q8NI08) | inactive: 0.264
4 | UniProt Q8N6R0_C226 | inactive: 0.074
5 | UniProt Q8WU20_C415 | inactive: 0.241
6 | ENAH C7 (UniProt Q8N8S7) | inactive: -0.0222
7 | MTMR14 C429 (UniProt Q8NCE2) | inactive: 0.908
8 | THOC2 C743 (UniProt Q8NI27) | inactive: 0.442
9 | RDH10 C272 (UniProt Q8IZV5) | inactive: 0.324
10 | GSTCD C335 (UniProt Q8NEC7) | inactive: 0.19
11 | RBM15B C859 (UniProt Q8NDT2) | inactive: 0.229
12 | UniProt Q8N6R0_C391 | inactive: 0.2
13 | DDX51 C402 (UniProt Q8N8A6) | inactive: 0.39
14 | AHCTF1 C1131 (UniProt Q8WYP5) | inactive: 0.589
15 | UniProt Q8NFC6_C2164 | inactive: 0.286
16 | KLHL36 C263 (UniProt Q8N4N3) | inactive: -0.0546
17 | PHIP C954 (UniProt Q8WWQ0) | active: 1.46
18 | UniProt Q8NFC6_C686 | inactive: 0.47
19 | SUPT20H C255 (UniProt Q8NEM7) | inactive: 0.406
20 | RDH13 C30 (UniProt Q8NBN7) | inactive: 0.116
21 | UniProt Q8NFC6_C2570 | inactive: 0.348
22 | DUSP19 C188 (UniProt Q8WTR2) | inactive: 0.264
23 | DNAJB14 C192 (UniProt Q8TBM8) | inactive: 0.0368

Fetched one by one from above:
Row | Target | log2 ratio of iodoacetamide-alkyne labeling
8 | THOC2 C743 (UniProt Q8NI27) | inactive: 0.442
11 | RBM15B C859 (UniProt Q8NDT2) | inactive: 0.229
